No constants are given. Whether binding was seen depends on the method and setting. For some assays here: In cells and extracts the contact can be indirect. Some entries that bind do so weakly or less than the wild type.

Protein sequences, listed by entry. Tags and fused reporters are not part of them. Lines headed by an entry give the natural chain unless they say otherwise; changes in a name come on top. Residues count along the entry.
UniProt O92506: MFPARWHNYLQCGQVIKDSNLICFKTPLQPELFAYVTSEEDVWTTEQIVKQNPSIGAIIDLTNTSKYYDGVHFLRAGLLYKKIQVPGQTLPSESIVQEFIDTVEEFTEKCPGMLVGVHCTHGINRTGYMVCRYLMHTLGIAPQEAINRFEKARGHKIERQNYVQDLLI
N-terminal 90 amino acid residues of BmNPV PTP, yeast two-hybrid fusion (Bombyx mori nucleopolyhedrovirus (BmNPV)): residues 1-90 of O92506
UniProt O92377: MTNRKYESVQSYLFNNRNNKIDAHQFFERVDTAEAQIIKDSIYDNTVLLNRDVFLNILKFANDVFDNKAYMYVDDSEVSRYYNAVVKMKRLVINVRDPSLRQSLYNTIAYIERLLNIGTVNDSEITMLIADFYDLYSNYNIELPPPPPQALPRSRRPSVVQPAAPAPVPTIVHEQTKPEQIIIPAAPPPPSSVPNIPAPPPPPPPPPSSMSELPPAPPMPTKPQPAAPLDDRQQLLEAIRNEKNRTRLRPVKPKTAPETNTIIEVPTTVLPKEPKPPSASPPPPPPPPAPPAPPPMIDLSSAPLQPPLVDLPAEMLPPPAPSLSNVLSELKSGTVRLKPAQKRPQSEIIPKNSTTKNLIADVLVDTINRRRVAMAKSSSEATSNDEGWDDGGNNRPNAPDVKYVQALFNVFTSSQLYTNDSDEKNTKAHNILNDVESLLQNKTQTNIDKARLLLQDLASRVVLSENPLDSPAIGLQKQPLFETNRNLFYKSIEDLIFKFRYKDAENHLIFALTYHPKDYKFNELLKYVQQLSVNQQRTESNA

Test [1] concerns the target FLAG-tagged PTP expressed by BmPTPD-wt under the authentic ptp promoter (Bombyx mori nucleopolyhedrovirus (BmNPV)) (UniProt O92506). Briefly: co-IP; extracts of BmN cells infected with BmPTPD-wt (MOI 5, 72 h p.i.) immunoprecipitated with anti-FLAG antibody; western blot with anti-ORF1629 antibody. On the technique in general: In western blotting, separated proteins are transferred to a membrane and probed.

In test [2] the target is N-terminal 90 amino acid residues of BmNPV PTP, yeast two-hybrid fusion (Bombyx mori nucleopolyhedrovirus (BmNPV)) (UniProt O92506). Briefly: two-hybrid; further analysis in yeast with regions of ORF1629 and of PTP; X-gal screening assay.

For “ORF1629 in BmPTPD-wt-infected BmN cells (from UniProt O92377 1-542)”, in test [1], the binding result is reported as “binds”. On to “ORF1629 of BmNPV, yeast two-hybrid fusion used to map the ORF1629-interacting domains of PTP (from UniProt O92377 1-542)”, for which, in test [2], the binding result is “no binding”.

Values taken from PMC3320614.
